From patent publication US20250269058A1, “GENE THERAPY FOR TREATING NEURODEGENERATIVE DISEASES” (ABRAIN, priority 2021, published 2025)
Not every detail of the peptide structures is certain; ends, links or a residue may be inferred.

Tested on: N2a cells
Assay type: cell-based
Details: WT Aβ42 + variant co-incubated during oligomer formation, 10 μM, 24 hours

`CC[C@H](C)[C@H](NC(=O)[C@H](C)NC(=O)CNC(=O)[C@H](CCCCN)NC(=O)[C@H](CC(N)=O)NC(=O)[C@H](CO)NC(=O)CNC(=O)[C@@H](NC(=O)[C@H](CC(=O)O)NC(=O)[C@H](CCC(=O)O)NC(=O)[C@H](CC(=O)O)NC(=O)[C@H](Cc1ccccc1)NC(=O)[C@H](CC(=O)O)NC(=O)[C@@H]1CCCN1C(=O)[C@H](CC(C)C)NC(=O)[C@H](CCCCN)NC(=O)[C@H](CCC(N)=O)NC(=O)[C@H](Cc1c[nH]cn1)NC(=O)[C@H](Cc1c[nH]cn1)NC(=O)[C@@H](NC(=O)[C@H](CCC(=O)O)NC(=O)[C@H](Cc1ccc(O)cc1)NC(=O)CNC(=O)[C@H](CO)NC(=O)[C@H](CC(=O)O)NC(=O)[C@H](Cc1c[nH]cn1)NC(=O)[C@H](CCCNC(=N)N)NC(=O)[C@H](Cc1ccccc1)NC(=O)[C@H](CCC(=O)O)NC(=O)[C@H](C)NC(=O)[C@@H](N)CC(=O)O)C(C)C)C(C)C)C(=O)N[C@H](C(=O)NCC(=O)N[C@@H](CC(C)C)C(=O)N[C@@H](CCSC)C(=O)N[C@H](C(=O)NCC(=O)NCC(=O)N[C@H](C(=O)N[C@H](C(=O)N[C@H](C(=O)N[C@@H](C)C(=O)O)[C@@H](C)CC)C(C)C)C(C)C)C(C)C)[C@@H](C)CC` [Aβ42 (V18P/F19D/A21D)] was tested, and the “cell viability after co-incubation with WT Aβ42 (MTS)” value was “better cell viability than Aβ42 WT”.
